From article PMC8743547 come the findings set out here.

Chains of the proteins cited; added tags and fusions are not shown. Lines headed by an entry give the natural chain unless they say otherwise; changes in a name come on top.
UniProt P0AFB8: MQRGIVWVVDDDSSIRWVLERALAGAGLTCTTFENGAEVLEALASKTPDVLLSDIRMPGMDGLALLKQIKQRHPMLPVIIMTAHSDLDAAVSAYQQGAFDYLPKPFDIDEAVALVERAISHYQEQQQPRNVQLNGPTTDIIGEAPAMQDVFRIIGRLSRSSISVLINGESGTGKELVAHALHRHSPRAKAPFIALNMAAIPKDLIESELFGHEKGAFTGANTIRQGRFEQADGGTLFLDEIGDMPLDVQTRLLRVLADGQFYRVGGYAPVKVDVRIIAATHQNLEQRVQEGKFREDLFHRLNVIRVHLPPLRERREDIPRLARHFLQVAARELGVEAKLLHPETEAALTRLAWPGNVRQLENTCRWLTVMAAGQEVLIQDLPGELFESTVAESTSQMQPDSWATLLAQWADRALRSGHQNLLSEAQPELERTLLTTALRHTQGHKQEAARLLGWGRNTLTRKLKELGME

Construct, isoform or probe ends are uncertain for at least one entry.

In the data set the target is NtrC (Escherichia coli K-12 W3350 type-A) (UniProt P0AFB8). Briefly: EMSA. The conditions noted are these: 15 uM NtrC, acetylphosphate, EMSA: gel-shift buffer (composition not stated) with 25 mM acetylphosphate and ATP, 37 C, 30 min, 3.5% PAGE, GelRed stain, recombinant protein, protein details: His-tag, probe letters rebuilt from the primers and the genome.

Consider “GCGCAGGCGTATTTCAATTCGATCTCCAGATCAGGGAAGATTACGGCTAAATCAACCAGTTCGGTGGTATCCGACATAAACGGTTCCTGTATAAGACAAAAATTGCTGCGCTTTCCGCTTATGCAGATCTCATGCCATGCCGGGATAAGCGCCAGAATGCTGGCTTAAAGTTATATTTTTTAACTTTTGATCAACATTTGTGCAGCGTAGTGCAGTTTTGGTGCAAGAGGGGAAGTTAAGGAAGGAATCTCCCGGAATCGTAGCTGAAATCACAGTATTTAAGTGACAGTGTCACGTTAAATGAAAACCCGCGAGTGCGGGCGAGAGGAATTTGTCAGATTTTCAGCGGTAACACGCTGCTCATCCAGCCTGGAATTTCTTCGGCGGGTAGGGGGCGGGAAAAGAAATA (double strand) [ddpX probe]”, for which the binding result is “binds”.

On to “CGCGGATCCCGTTGATTTCCTCTGTATGTGCACCCAAGGTGCCAGATAAACGTTGTGGATATTTTACGCTTCCGGAAAGTGCTGCTCCAGTTGTTAATTCTGCAAAATCGGATAAGTGACCGAAATCACACTTAAAAATGATCTAAAACAAAATTCACCCGAATCCATGAGTGCGCCACCTCCAAATTTTGCCAGCTGGATCGCGTTTCTTAGATCATATTTGAAAAAAGATATAAACATACTTGCAACATTCCAGCTGGTCCGACCTATACTCTCGCCACTGGTCTGATTTCTAAGATGTACCTCAGACCCTACACTTCGCGCTCCTGTTACAGCACGTAACATAGTTTGTATAAAAATAAATCATTGAGGTTATGGTCATGAGCCAGAAAACCCTGTTTACAAAGTCTGCTCTCGCAGTCGCAGTGGCACTTATCTCCACCCAGGCCTGGTCGGCAGGCTTTCAGTTAAACGAATTTTCTTGAATTCCGG (double strand) [yfcZ/fadL probe]”, for which, for the setting “smear”, the binding result is “binds”.

Consider “CCTATCAGTTCCTGAATTACCTGCTGCGCCCGGATGTAGTAGCGCATATTTCCGACCATGTGTTCTATGCCAACGCCAATAAAGCAGCCACGCCGCTGGTGAGTGCGGAAGTCCGTGAGAACCCAGGTATTTATCCGCCTGCGGATGTTCGTGCGAAGCTGTTCACTCTGAAAGTGCAGGATCCGAAAATCGACCGTGTGCGCACCCGCGCGTGGACCAAAGTGAAGAGCGGAAAATAATCCGCAGTCGTAGATGCCGGAGGGGCGCACCACACCCGCCGGCAATTCGCACCATTATGGTGCGCTTGCACACATTCAATGCCGGAGAGCAGCCGTGAATGACGCTATCCCTCGCCCGCAGGCGAAAACCCGTAAGGCGCTGACGCCGCTATTAGAAATCCGCAACCTGACCAAATCCTAC (double strand) [potG probe]”, for which the binding result is reported as “binds”.

Regarding “CTCATCTTCTGACTTTAATGGCGCTCAGGGTGCAGCAATATTGGCGCATCAACGTTTTTTGCCACAGTTCTGTGCTAAAGCCCCATGAGTAAAACGTTGGCACAGTAGCGCAATGTCCCGCTGTGCCAACGACAGGTACAATATATACGTAAACACATAAACGACGGTTATTATTTCTGCAATGATAGTTTTACTGTAATTTTCCCCTTCCAGCACAAATGCCTATCAAAATGGCGCGTTCCGCCTCACACTTCCACTTCTATTAAAGTCGCAATTTCCCAATTGGCGATAACGCCAGCTTTTAAAATGACGTGCATTTTGCATGGATTACATTATCAATTAATATAAATGATAAATGGAGATTTATATGAATAACTCTCG (double strand) [yjcS probe]”, the binding result (smear) is “binds”.

As to “ACCAGAACGAATACTATTATGGCGTATCGCGCAAAGAGTCCGCTCGCAGCGGTCTGCGTGGCTATAACCCGAACGACAGCTGGAGCCCTTACCTGGAGCTGAGCGCCAGCTACAACTTCCTCGGCGACTGGAGTGTTTACGGTACCGCACGCTACACCCGTCTGTCTGATGAAGTTACTGACAGCCCGATGGTGGATAAATCCTGGACTGGCCTGATTTCTACCGGGATCACCTACAAATTCTGATAATGCATCTTTCCAGGGCATTTTGTGCATAAAAACAGGGCGTCACGCCCTGTTTTGCATTACGGTGGTGCAATACCTGGGAGGAAACAATGCAACAAAAAATGATTCAATTTAGTGGCGATGTCTCACTGCCAGCCGTAGGGCAGGGAACATGGTATATGG (double strand) [yeaE probe]”, the binding result (smear) is “binds”.
